Several values for one entry are separate records, joined by “and”; a condition that tells them apart may be missing. Identical values can stand only once. Among all 300,000 compounds or so, about 3,700 (1.2%) were called active. Inconclusive means that the source gave no clear call. Such entries were picked first, then a sample of the others. The call rests on the fitted dose curve; tested in HEK293 cells. Where the call is inconclusive, the potency comes from a doubtful curve fit.
Experiment: qHTS for Inhibitors of binding or entry into cells for Lassa Virus; further: nearly all actives have a fitted effect of over 50% in size
Details: Lassa virus pseudotype entry inhibition, cell reporter; series mostly up to 37.9 µM
Potency means the concentration at half of the fitted maximal effect.

Compound | Potency
Cn1c(=O)c2c(nc(CN3CCN(c4ccccc4)CC3)n2Cc2c(F)cccc2Cl)n(C)c1=O | inconclusive: 7.3 µM [inhibitor, partial curve]
COc1ccc(NC(=O)CCS(=O)(=O)c2ccc3c(c2)oc(=O)n3C)cc1OC | inconclusive: 35.5 µM [activator, single point]
CCC(C)Sc1nc2c(c(=O)[nH]c(=O)n2C)n1CC(O)COc1ccccc1C (stereo not given) | inconclusive: 29.1 µM [inhibitor, single point]
O=S(=O)(NCCc1cn2ccccc2n1)c1ccc2c(c1)CCCC2 | inconclusive: 29.1 µM [inhibitor, single point]
c1ccc(Oc2cc(-c3ccccc3)nc(-c3ccccc3)n2)cc1 | inactive
COc1ccc(C(=O)Nc2cc3c4c(c2)CC(=O)N4CCC3)c(OC)c1 | inconclusive: 5.01 µM [activator, single point]
c1ccc(CC2CCCNC2)cc1 (stereo not given) | inactive
COc1cc(-c2nc(=S)[nH][nH]2)cc(OC)c1OC | inconclusive: 3.16 µM [inhibitor, single point]
c1ccc2c(N3CCCCC3)nc(N3CCCCC3)nc2c1 | inconclusive: 1.26 µM [inhibitor, single point]
CCOc1ccccc1C(=O)Nc1ccccc1O | inactive
Cc1ccccc1-c1nc(CN2C(=O)CN=C(c3ccccc3)c3ccccc32)c(C)o1 | inconclusive: 11.2 µM [inhibitor, single point]
CN(C)c1ccc(-c2nc(-c3cccs3)c(-c3cccs3)[nH]2)cc1 | inconclusive: 35.5 µM [inhibitor, single point]
CCOc1ccc(C(=O)NCCc2ccccc2)cc1 | active: 8.2 µM
CCNC(=S)Nc1scc(-c2ccccc2)c1C(=O)OCC | inactive
CN(C)S(=O)(=O)c1cccc(NC(=O)/C=C/c2ccc(S(=O)(=O)N3CCOCC3)cc2)c1 | inconclusive: 12.6 µM [inhibitor, partial curve, poor fit]
Cc1ccc(S(=O)(=O)NCCn2nc(C)cc2C)cc1 | inconclusive: 10 µM [activator, partial curve, poor fit]
O=C(N=Nc1c(O)[nH]c2ccc(Cl)cc12)c1cc(-c2cccs2)nc2ccccc12 | inconclusive: 22.4 µM [inhibitor, single point]
COc1ccc(-c2cc3c(=O)n(CC(=O)Nc4cc(F)ccc4F)ccn3n2)cc1OC | inactive
C[n+]1c(-c2ccccc2)cc2c(=Cc3ccc([N+](=O)[O-])cc3)c3ccccc3n21 | active: 10 µM
O=C1COc2ccc(-c3cc(-c4ccccc4)c4c(n3)-c3ccccc3OC4)cc2N1 | inconclusive: 35.5 µM [activator, single point]
Cn1c(=O)c(C(=O)COC(=O)c2cc(C3CC3)nc3ccccc23)c(N)n(Cc2ccccc2)c1=O | inactive
CCOc1ccccc1C(=O)Nc1cc2c(cc1N1CCCCC1)n(C)c(=O)n2C | inconclusive: 12.6 µM [inhibitor, partial curve, poor fit]
Cc1ccc(-c2cc(C(=O)Nc3cc(C)on3)c3ccccc3n2)c(C)c1 | inactive
COc1ccc(N(CC(=O)NN=C2CCCCCCC2)S(=O)(=O)c2ccccc2)cc1 | inactive

Compound | Potency
CCC(C)n1c(SCc2ccc([N+](=O)[O-])cc2)nc2ccsc2c1=O (stereo not given) | inconclusive: 12.6 µM [inhibitor, single point]
Cc1ccc(C(C)NC(=S)NCc2ccc(F)cc2)c(C)c1 (stereo not given) | inactive
CC(C)Sc1nnc(NC(=O)c2ccc3c(c2)OCO3)s1 | inconclusive: 3.55 µM [activator, single point]
CCC(O)c1nc2ccccc2n1CCOc1cc(C)cc(C)c1 (stereo not given) | inconclusive: 6.31 µM [activator, single point]
O=C(NC1C/C(=N/O)c2cc3c(cc21)OCO3)C(F)(F)F (stereo not given) | inactive
O=C(NCC1CCCN1S(=O)(=O)c1cccs1)c1cccc(F)c1 (stereo not given) | inconclusive: 0.708 µM [inhibitor, single point]
Cc1ccc(S(=O)(=O)N2CCOCC2)cc1C(=O)NC1CCCCCC1 | inconclusive: 2.82 µM [inhibitor, single point]
Cc1ccc(Sc2cc(C(=O)NCCCN(C)C)c3ccccc3n2)cc1 | inconclusive: 15.8 µM [inhibitor, partial curve, poor fit]
CN(c1ccccc1)S(=O)(=O)c1cc(C(=O)N2CCN(c3ccccn3)CC2)ccc1Cl | inconclusive: 22.4 µM [inhibitor, single point]
NC(=O)C1CCN(C(=O)CSc2ccccn2)CC1 | inactive
CC(=O)c1cc(F)ccc1OCC(=O)Nc1ccc2c(c1)OCO2 | inconclusive: 1.12 µM [activator, partial curve, poor fit]
Cc1cc(C)cc(NS(=O)(=O)c2ccc3[nH]cc(C(=O)NCc4ccco4)c(=O)c3c2)c1 | inconclusive: 10 µM [inhibitor, partial curve, poor fit] and inconclusive: 14.1 µM [inhibitor, single point]
CCOc1ccccc1/C=N/Nc1cc(C)nc2ccc(C)cc12 | inconclusive: 0.631 µM [activator, full curve]
Cc1ccnc(NC(=O)c2cc3ccccc3o2)c1 | inconclusive: 5.01 µM [inhibitor, partial curve, poor fit]
Cn1c(N)c(C(=O)CSc2nnc(Cc3cccs3)n2C2CC2)c(=O)n(C)c1=O | inactive
Cc1nc2ccc(NC(=O)c3cccc(S(=O)(=O)N4CC(C)OC(C)C4)c3)cc2s1 (stereo not given) | inconclusive: 12.6 µM [inhibitor, partial curve]
CC1=C(C(=O)Nc2ccc(C)cc2C)C(c2ccc[nH]2)n2ncnc2N1 (stereo not given) | inconclusive: 6.31 µM [activator, partial curve]
Cc1c2cccn2cc[n+]1C | inconclusive: 11.2 µM [activator, partial curve, poor fit]
CCOc1ccc(NS(=O)(=O)c2cc(C(=O)N(CC)CC(=O)NCc3cccs3)ccc2C)cc1 | inactive
CN(c1ccc(C(=O)N2CCOCC2)cc1)S(C)(=O)=O | inactive
CN(C)C(=O)c1nc2ccccc2s1 | inconclusive: 28.2 µM [inhibitor, single point]
CNC(=O)c1cc(Cl)c(OC)c(OC)c1 | inconclusive: 8.91 µM [activator, partial curve, poor fit]
CC[N+](CC)(CC)CC | inconclusive: 1.46 µM [activator, full curve]
COc1ccc(OC)c(-n2cnc3cc(C(=O)NCCc4ccccc4)ccc32)c1 | inactive

Compound | Potency
NC(=O)N1CCC2(CC1)NC(=O)N(c1ccccc1)N2 | inconclusive: 10 µM [inhibitor, partial curve, poor fit]
CC1CN(c2ccnc3cc(Cl)ccc23)CC(C)O1 (stereo not given) | inconclusive: 1.58 µM [inhibitor, full curve, poor fit]
CCOC(=O)N1CCN(C(=S)Nc2cccc(C)c2)CC1 | inactive
Cc1ccc(NC(=S)NNC(=O)CSc2nnc(-c3ccc(Cl)cc3)n2C2CCCCC2)cc1 | inconclusive: 7.31 µM [inhibitor, partial curve, poor fit]
COCCCNc1ncnc2c1nnn2C | inactive
CC(C)c1cnc2c(c1SCC(=O)Nc1cccc([N+](=O)[O-])c1)c(=O)n(C)c(=O)n2C | inactive
c1ccc(CSc2ncnc3c2oc2ccccc23)cc1 | inactive
CCCCC(CC)Cn1c(Oc2ccccc2)nc2c1c(=O)n(C)c(=O)n2C (stereo not given) | inactive
Cc1onc(-c2ccccc2Cl)c1C(=O)NCc1nc(-c2ccc(C(F)(F)F)cc2)no1 | active: 10 µM
O=c1cc(-c2ccccc2)c2ccc(O)cc2o1 | inconclusive: 35.5 µM [inhibitor, single point]
CCc1ccccc1NC(=O)C(=O)NCCc1sc(-c2cccc(C)c2)nc1C | inactive
Cc1nc(-c2ccc(NC(=O)c3ccc(Br)o3)cc2)cs1 | inconclusive: 22.4 µM [inhibitor, single point]
COc1ccccc1NC(=O)CC1SC(=N)N(c2ccccc2)C1=O (stereo not given) | inconclusive: 1 µM [inhibitor, single point]
Cc1ccc(CNC(=O)C2CCC(=O)N2Cc2ccc(F)cc2)cc1 (stereo not given) | inconclusive: 8.91 µM [inhibitor, partial curve, poor fit]
Cc1cccc(NC(=O)CSc2nnc(-c3cc(C)n(-c4ccccc4)c3C)o2)c1C | inconclusive: 35.5 µM [inhibitor, single point]
COc1ccc(CCNC(=O)CN2C(=O)COc3ccc(S(=O)(=O)N4CCCCCC4)cc32)cc1OC | inconclusive: 5.62 µM [inhibitor, single point]
CCc1ccc(CNC(=O)c2cnc3sc(N(CC)CC)nn3c2=O)cc1 | inconclusive: 1.58 µM [inhibitor, full curve, poor fit]
CCOC(=O)/C(C#N)=C(/C)c1ccc(OC)cc1 | inactive
C=CCc1cc(OC)ccc1OCC(O)CN1CCN(c2ccc(OC)cc2)CC1 (stereo not given) | inconclusive: 2.31 µM [inhibitor, partial curve, poor fit]
CCOC(=O)C1CCCN(S(=O)(=O)c2ccc3c(c2)N(C)C(=O)CC(=O)N3C)C1 (stereo not given) | inconclusive: 17.8 µM [inhibitor, single point]
Cc1cccc(NC(=O)N2CCN(Cc3ccc(Cl)cc3)CC2)c1 | inconclusive: 3.55 µM [inhibitor, partial curve, poor fit]
Cc1ccc(S(=O)(=O)N2CCN(C(=O)c3ccc(Br)o3)CC2)c(C)c1 | inconclusive: 10 µM [inhibitor, partial curve]

— PubChem BioAssay AID540256 (National Center for Advancing Translational Sciences (NCATS), 2011)
